Assay results as given in publication doi:10.1101/2022.09.25.509437.
No constants are given. Whether binding was seen depends on the method and setting. Some results given as binding are weak or reduced against the parent protein; the word gives no strength.

The chains behind the UniProt entries cited, without tags or fusion partners. Residues count along the entry.
UniProt P84903, residues 23-685: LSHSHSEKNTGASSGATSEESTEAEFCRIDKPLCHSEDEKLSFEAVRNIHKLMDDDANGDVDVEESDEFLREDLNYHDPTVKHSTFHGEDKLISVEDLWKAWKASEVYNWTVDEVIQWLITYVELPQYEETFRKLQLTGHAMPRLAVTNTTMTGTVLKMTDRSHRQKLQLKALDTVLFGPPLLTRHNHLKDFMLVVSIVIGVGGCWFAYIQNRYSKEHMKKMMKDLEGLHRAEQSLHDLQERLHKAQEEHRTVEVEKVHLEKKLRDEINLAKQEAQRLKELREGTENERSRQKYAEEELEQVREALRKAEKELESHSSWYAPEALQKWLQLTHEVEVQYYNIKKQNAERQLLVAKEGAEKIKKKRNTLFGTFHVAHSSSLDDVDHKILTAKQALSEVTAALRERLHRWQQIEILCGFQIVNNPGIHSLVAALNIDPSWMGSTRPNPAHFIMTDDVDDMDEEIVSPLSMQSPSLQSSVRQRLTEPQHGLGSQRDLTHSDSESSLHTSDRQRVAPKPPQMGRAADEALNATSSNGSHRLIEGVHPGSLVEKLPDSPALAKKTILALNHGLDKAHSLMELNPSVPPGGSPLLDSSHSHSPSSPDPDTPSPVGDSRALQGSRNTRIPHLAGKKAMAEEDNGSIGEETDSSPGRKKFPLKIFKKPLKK

Molecular target: STIM1 (stromal interaction molecule 1) (rat (endogenous in RBL-2H3)) (UniProt P84903)
Test: native gel or EMSA

## STIM1 (stromal interaction molecule 1) (from UniProt P84903 23-685)
  binding: binds
